We go through 12 molecules from patent US20190382493A1.

By UniProt entry, the sequences of proteins in these tests, tags left out. Where a name states a change or a piece, a line headed by the entry shows the natural chain unless it says otherwise. Chains listed by the source or under a name are the forms on record and can include a tag or linker. Residues count along the entry.
UniProt Q9NZQ7, residues 19-239: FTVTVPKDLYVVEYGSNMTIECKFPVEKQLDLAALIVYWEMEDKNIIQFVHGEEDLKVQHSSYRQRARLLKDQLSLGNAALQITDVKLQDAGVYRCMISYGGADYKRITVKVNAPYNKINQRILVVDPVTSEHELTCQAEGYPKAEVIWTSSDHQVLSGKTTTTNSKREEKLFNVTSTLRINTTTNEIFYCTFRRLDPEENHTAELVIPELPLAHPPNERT
cynomolgus monkey (cyno) PDL1-Fc (Sino biological) (G7PSE7, form named): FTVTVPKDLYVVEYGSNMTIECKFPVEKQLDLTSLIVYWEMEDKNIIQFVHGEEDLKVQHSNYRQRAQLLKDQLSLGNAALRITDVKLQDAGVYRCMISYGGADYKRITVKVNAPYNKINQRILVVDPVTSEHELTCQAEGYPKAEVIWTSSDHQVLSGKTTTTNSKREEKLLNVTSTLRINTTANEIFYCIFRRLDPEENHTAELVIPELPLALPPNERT
UniProt Q9EP73: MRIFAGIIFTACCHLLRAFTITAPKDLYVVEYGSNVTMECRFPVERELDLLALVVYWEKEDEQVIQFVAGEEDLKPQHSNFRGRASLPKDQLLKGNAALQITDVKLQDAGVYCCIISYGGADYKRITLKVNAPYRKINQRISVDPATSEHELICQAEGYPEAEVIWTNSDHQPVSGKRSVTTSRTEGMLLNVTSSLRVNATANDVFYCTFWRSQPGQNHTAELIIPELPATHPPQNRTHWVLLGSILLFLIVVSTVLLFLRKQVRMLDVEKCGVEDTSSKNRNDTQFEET

Test [1] has as its target human PDL1-Fc (R & D Systems) (human) (UniProt Q9NZQ7). In words: Fab-phage ELISA, antigen adsorbed.
Test [2] addresses cynomolgus monkey (cyno) PDL1-Fc (Sino biological) (cynomolgus monkey) (UniProt G7PSE7). Briefly: ELISA, PDL1-Fc adsorbed, anti-human IgG (Fab specific)-HRP.
Test [3] shares this target. Briefly: ELISA (figure legend).
The target in test [4] is mouse PDL1 (R&D Systems) (mouse) (UniProt Q9EP73). In words: Fab-phage ELISA, antigen adsorbed. On the technique in general: An ELISA detects its analyte on a solid surface through an enzyme-linked reagent.

Changes are numbered by the printed parent chain. These are yes or no findings as the source states them, for the method shown. Some binding calls cover weakened binding; strength is not graded here.

B1: PDL1 A05 Fab-phage (Fab, V domains shown)
VH: EVQLLESGGGLVQPGGSLRLSCAASGFTFSSYAMSWVRQAPGKGLEWVSSIWKQGIVTVYDSVKGRFTISRDNSKNTLYLQMNSLRAEDTAVYYCAKSSAGFDYWGQGTLVTV
VL: DIQMTQSPSSLSASVGDRVTITCRASQSISSYLNWYQQKPGKAPKLLIYYASTLQSGVPSRFSGSGSGTDFTLTISSLQPEDFATYYCQQDNGYPSTFGQGTKVEIKR
B1: the binding result in test [1] is listed as “binds”.

B2: PDL1 D01 Fab-phage (Fab, V domains shown)
VH: EVQLLESGGGLVQPGGSLRLSCAASGFTFSSYAMSWVRQAPGKGLEWVSSIWKQGIVTVYDSVKGRFTISRDNSKNTLYLQMNSLRAEDTAVYYCAKSSAGFDYWGQGTLVTVSS
VL: B1 VL
As for B2, the binding entry in test [1] is recorded as “binds”.

B3: anti-PDL1 antibody C5H9v2 (antibody, V domains shown)
VH: EVQLLESGGGLVQPGGSLRLSCAASGFTFSSYAMSWVRQAPGKGLEWVSSIWRNGIVTVYADSVKGRFTISRDNSKNTLYLQMNSLRAEDTAVYYCAKWSAAFDYWGQGTLVTVSS
VL: B1 VL with Y50A, T53S, Q100G
For the molecule B3, the binding entry in test [2] and in test [3] was “binds” each time.

B4: PDL1 C05 Fab-phage (Fab, V domains shown)
VH: B2 VH with K53R, Q54N
VL: B1 VL
For the molecule B4, the binding result in test [1] and in test [4] was “binds” each time.

B5: PDL1 G10 Fab-phage (Fab, V domains shown)
VH: B2 VH with W52G, K53R, I56L, V57I
VL: B1 VL
On to B5, for which, in test [1], the binding entry is “binds”.

B6: PDL1 G09 Fab-phage (Fab, V domains shown)
VH: B2 VH with S50E, W52V, K53A, Q54T, V57L, V59S
VL: B1 VL
Consider B6, for which, in test [1], the binding entry is “binds”.

B7: PDL1 D08 Fab-phage (Fab, V domains shown)
VH: B2 VH with K53R, I56L, V57A, V59A
VL: B1 VL
On to B7, for which the binding entry in test [1] is reported as “binds”.

B8: anti-PDL1 antibody C5H9 (antibody, V domains shown)
VH: B3 VH
VL: B1 VL
For the molecule B8, the binding entry in test [2] and in test [3] was “binds” in each case.

B9: PDL1 E11 Fab-phage (Fab, V domains shown)
VH: EVQLLESGGGLVQPGGSLRLSCAASGFTFSSYAMSWVRQAPGKGLEWVSDIWKQGFATADSVKGRFTISRDNSKNTLYLQMNSLRAEDTAVYYCAKSSAGFDYWGQGTLVTVSS
VL: B1 VL
In the case of B9, the binding result in test [1] was “binds”.

B10: PDL1 G12 Fab-phage (Fab, V domains shown)
VH: B2 VH with K53Y, I56L
VL: B1 VL
Take B10: the binding entry in test [1] and in test [4] was “binds” throughout.

B11: PDL1 H06 Fab-phage (Fab, V domains shown)
VH: B2 VH with K53R, I56L, V57A, V59A
VL: B1 VL
In the case of B11, the binding entry in test [1] is on record as “binds”.

B12: PDL1 C10 Fab-phage (Fab, V domains shown)
VH: B2 VH with S50D, I56M
VL: B1 VL
For the molecule B12, the binding result in test [1] was “binds”.
